No constants are given. Whether binding was seen depends on the method and setting. In cells and extracts the contact can be indirect. These calls come from enrichment with a bait or labelling near it, and not all partners need be listed.
T1: N-terminal portion of Gsdma3 (A.A. 1-227) (mouse) (UniProt Q5Y4Y6)
T1 sequence: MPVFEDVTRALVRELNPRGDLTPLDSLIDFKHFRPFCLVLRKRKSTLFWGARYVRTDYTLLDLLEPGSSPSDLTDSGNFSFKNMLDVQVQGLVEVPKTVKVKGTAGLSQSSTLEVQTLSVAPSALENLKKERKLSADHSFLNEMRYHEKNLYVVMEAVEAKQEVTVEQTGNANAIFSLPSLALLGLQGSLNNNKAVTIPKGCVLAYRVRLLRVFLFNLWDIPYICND

Amino acid sequences for entries named in this document (tags omitted). Residues count along the entry.
UniProt P38646, residues 47-679: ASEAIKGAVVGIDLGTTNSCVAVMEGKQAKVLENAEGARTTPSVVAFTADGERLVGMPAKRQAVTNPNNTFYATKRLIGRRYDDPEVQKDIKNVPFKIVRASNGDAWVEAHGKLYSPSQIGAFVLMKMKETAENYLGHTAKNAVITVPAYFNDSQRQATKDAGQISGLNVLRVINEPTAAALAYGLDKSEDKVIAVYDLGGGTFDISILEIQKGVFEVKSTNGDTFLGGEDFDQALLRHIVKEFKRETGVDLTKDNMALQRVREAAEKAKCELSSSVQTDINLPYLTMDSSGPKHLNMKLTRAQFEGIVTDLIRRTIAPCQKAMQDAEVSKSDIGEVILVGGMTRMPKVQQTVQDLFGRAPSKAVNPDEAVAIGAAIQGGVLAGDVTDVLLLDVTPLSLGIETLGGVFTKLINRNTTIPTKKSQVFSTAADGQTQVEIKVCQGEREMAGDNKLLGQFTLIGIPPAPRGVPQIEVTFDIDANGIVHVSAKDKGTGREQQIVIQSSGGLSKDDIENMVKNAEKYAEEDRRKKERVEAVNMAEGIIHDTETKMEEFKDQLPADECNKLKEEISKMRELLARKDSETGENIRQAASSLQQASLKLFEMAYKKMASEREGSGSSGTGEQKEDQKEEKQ
UniProt P0DMV8: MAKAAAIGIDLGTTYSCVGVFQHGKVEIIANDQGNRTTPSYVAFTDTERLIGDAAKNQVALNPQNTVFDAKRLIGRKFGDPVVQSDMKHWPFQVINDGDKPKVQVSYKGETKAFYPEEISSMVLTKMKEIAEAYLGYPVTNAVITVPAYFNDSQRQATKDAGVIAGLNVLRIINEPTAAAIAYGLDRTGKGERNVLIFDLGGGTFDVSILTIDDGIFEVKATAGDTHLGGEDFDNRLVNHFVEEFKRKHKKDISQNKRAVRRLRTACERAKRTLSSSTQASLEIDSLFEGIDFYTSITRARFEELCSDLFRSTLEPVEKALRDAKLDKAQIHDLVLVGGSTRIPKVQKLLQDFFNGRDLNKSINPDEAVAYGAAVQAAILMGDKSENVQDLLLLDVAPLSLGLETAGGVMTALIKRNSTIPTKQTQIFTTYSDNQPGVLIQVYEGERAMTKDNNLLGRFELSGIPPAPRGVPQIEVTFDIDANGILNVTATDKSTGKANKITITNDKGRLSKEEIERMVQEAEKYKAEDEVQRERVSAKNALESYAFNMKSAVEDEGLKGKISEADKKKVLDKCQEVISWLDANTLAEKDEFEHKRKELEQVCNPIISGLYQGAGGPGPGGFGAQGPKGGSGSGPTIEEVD
UniProt P08238: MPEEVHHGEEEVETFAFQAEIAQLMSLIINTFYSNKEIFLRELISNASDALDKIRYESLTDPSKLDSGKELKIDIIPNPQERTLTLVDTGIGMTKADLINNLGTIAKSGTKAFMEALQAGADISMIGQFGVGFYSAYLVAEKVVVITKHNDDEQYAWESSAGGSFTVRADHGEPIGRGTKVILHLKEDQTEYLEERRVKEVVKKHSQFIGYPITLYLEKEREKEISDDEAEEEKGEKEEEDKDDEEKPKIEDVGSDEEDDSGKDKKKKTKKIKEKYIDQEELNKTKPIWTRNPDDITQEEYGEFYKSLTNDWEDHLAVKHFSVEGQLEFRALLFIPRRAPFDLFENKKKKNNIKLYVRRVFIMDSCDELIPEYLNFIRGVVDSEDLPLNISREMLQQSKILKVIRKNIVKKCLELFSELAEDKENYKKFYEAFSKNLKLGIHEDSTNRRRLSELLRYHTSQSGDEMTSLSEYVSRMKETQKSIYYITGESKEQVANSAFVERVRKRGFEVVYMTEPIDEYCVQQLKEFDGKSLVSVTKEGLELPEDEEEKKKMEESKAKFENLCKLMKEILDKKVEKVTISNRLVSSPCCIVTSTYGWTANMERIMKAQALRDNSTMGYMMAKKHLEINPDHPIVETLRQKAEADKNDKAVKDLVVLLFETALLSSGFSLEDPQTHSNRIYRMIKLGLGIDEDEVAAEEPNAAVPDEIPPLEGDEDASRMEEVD

B1: TNF receptor-associated protein 1 (protein, UniProt Q12931 60-704)
chain: STQTAEDKEEPLHSIISSTESVQGSTSKHEFQAETKKLLDIVARSLYSEKEVFIRELISNASDALEKLRHKLVSDGQALPEMEIHLQTNAEKGTITIQDTGIGMTQEELVSNLGTIARSGSKAFLDALQNQAEASSKIIGQFGVGFYSAFMVADRVEVYSRSAAPGSLGYQWLSDGSGVFEIAEASGVRTGTKIIIHLKSDCKEFSSEARVRDVVTKYSNFVSFPLYLNGRRMNTLQAIWMMDPKDVREWQHEEFYRYVAQAHDKPRYTLHYKTDAPLNIRSIFYVPDMKPSMFDVSRELGSSVALYSRKVLIQTKATDILPKWLRFIRGVVDSEDIPLNLSRELLQESALIRKLRDVLQQRLIKFFIDQSKKDAEKYAKFFEDYGLFMREGIVTATEQEVKEDIAKLLRYESSALPSGQLTSLSEYASRMRAGTRNIYYLCAPNRHLAEHSPYYEAMKKKDTEVLFCFEQFDELTLLHLREFDKKKLISVETDIVVDHYKEEKFEDRSPAAECLSEKETEELMAWMRNVLGSRVTNVKVTLRLDTHPAMVTVLEMGAARHFLRMQQLAKTQEERAQLLQPTLEINPRHALIKKLNQLRASEPGLAQLLVDQIYENAMIAAGLVDDPRAMVGRLNELLVKALERH

Each molecule was assayed against T1, N-terminal portion of Gsdma3 (A.A. 1-227) (mouse) (assay: affinity purification with mass spectrometry; anti-flag immunoprecipitation from transfected HEK293T cells, SDS-PAGE, silver staining; unique bands Gel1 (approximately 100 kDa) and Gel2 (approximately 70 kDa) excised, nanoLC-MS/MS, Mascot search of human UniProt).

Row | binding | Molecule
1 | binds | Grp75 (from UniProt P38646 47-679)
2 | binds | Hsp70 1A (from UniProt P0DMV8 1-641)
3 | binds | Hsp90α (from UniProt P07900 1-732)
4 | binds | Hsp90β (from UniProt P08238 1-724)
5 | binds | Stress-induced-phosphoprotein 1 (from UniProt P31948 1-543)
6 | binds | B1

From publication PMC4477613
